Assay results as given in PubChem BioAssay AID1487 (National Center for Advancing Translational Sciences (NCATS), 2009).
“And” between values parts separate entries of the source, which are not always exact repeats. Identical values can stand only once. The list shows a part of the results. Further columns of the screen follow, without active or inactive calls. The list favours compounds with an active or inconclusive main result. Words in brackets tell the shape of the fitted curve; partial curves, single points and poor fits give uncertain potencies.

Assay: qHTS Assay for Modulators of Lamin A Splicing
Settings: HeLa LMNA splicing GFP/RFP minigene ratio, 48 h
How it was run: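 Read-out is the ratio of GFP to DsRed2 object intensity, acquired by 488 nm laser-scanning cytometry on HeLa lamin A-EGFP minigene reporter cells. Compound incubation 48 hrs at 37 °C in Opti-MEM with 2% FBS; DMSO 0.5% final.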

[1] = measured here: GFP splicing reporter channel
[2] = measured here: RFP viability control channel

Structure (SMILES)	AC50 [1]	AC50 [2]
Cc1ccc(OCC(=O)Nc2cccc(C(=O)OCc3cc(=O)n4c(C)csc4n3)c2)cc1	12.6 µM [falling, single point]	12.6 µM [falling, single point]
COCCn1c(=O)cnc2cnc(Nc3ccccc3)nc21	12.6 µM [falling, partial curve]	17.8 µM [falling, partial curve]
O=C(CNC(=O)OCc1ccccc1)NC1CCCCCCC1	0.02 µM [falling, full curve, poor fit]	
CCOC(=O)N1CCN(S(=O)(=O)c2ccc(OCC)c(C)c2)CC1		22.4 µM [rising, single point]
COc1ccc(N2C(=O)C3C(C2=O)C(C(=O)c2ccccc2)N2CCCC32)cc1 (stereo not drawn)		35.5 µM [falling, single point]
COc1cccc(Nc2nc(-c3sc(NC(=O)CC(C)C)nc3C)cs2)c1		15.8 µM [rising, single point]
Cc1nc2c(ccc3nc(NC(=O)C(c4ccccc4)c4ccccc4)sc32)s1		22.4 µM [rising, partial curve]
Cn1cccc1C(=O)Nc1nc(-c2ccccn2)cs1	5.62 µM [falling, partial curve]	7.94 µM [falling, partial curve]
Cc1ccc(NC(=O)C2CCCN(S(=O)(=O)c3c(C)noc3/C=C/N(C)C)C2)cc1F (stereo not drawn)	11.2 µM [rising, partial curve]	12.6 µM [rising, single point]
COc1cccc(C(=O)N/N=C(/c2ccccc2)c2ccccn2)c1		3.98 µM [rising, full curve]
CCCCCCCCSc1n[nH]c(N)n1	5.62 µM [rising, partial curve, poor fit]	15.8 µM [rising, partial curve]
COc1ccc(S(=O)(=O)N(CC(=O)Nc2ccc3c(c2)OCO3)c2ccccc2OC)cc1		15.8 µM [rising, single point]
O=C(NCCN1CCOCC1)c1cc2cc([N+](=O)[O-])ccc2s1		2.51 µM [rising, partial curve]
CC1=NN(c2ccc(Cl)cc2)C(=O)C1	5.01 µM [falling, partial curve, poor fit]	
CCCCOc1ccc(NC(=O)C(=O)NCCCn2ccnc2)cc1		22.4 µM [rising, single point]
COc1cccc(C2CCCN2Cc2nc(CCC(C)C)no2)c1 (stereo not drawn)	7.94 µM [falling, partial curve, poor fit]	1.41 µM [falling, partial curve, poor fit]
CCOC(=O)C1=C(CC)Nc2ccccc2N=C1NC(=O)c1ccc(S(=O)(=O)N2CCCC2)cc1		35.5 µM [rising, single point]
Cc1sc(NC(=O)CSc2nnc(C(C)C)n2C)c(C#N)c1C	1.26 µM [falling, single point]	
O=C(Cn1c(-c2cccs2)cc2ccccc21)NCCCN1CCN(c2ccccc2F)CC1	0.708 µM [rising, full curve, poor fit]	12.6 µM [rising, partial curve]
O=C(CSc1nccn1Cc1ccccc1)Nc1ccc2c(c1)OCCO2	22.4 µM [falling, partial curve]	50.1 µM [falling, partial curve, poor fit]
COc1ccc(/C=N/NC(=O)c2nc(-c3ccccc3)n(-c3ccccc3)n2)c(O)c1		22.4 µM [rising, single point]
CCN(CC)CCNC(C(=O)OCCC(C)C)c1ccccc1 (stereo not drawn)	0.0355 µM [falling, full curve]	
Cc1cc(N/C(=N/S(=O)(=O)c2cc(F)ccc2F)c2ccccc2)n(-c2ccccc2)n1		0.0355 µM [rising, full curve, poor fit]
Cc1ccc(C(=O)NCCSCc2ccccc2)cc1[N+](=O)[O-]	15.8 µM [rising, single point]	15.8 µM [rising, single point]
O=C(NC1CCCC1)C(c1ccncc1)N(Cc1ccccc1)C(=O)c1ccc(-c2ccccc2)[nH]1 (stereo not drawn)	22.4 µM [falling, single point]	
CN(C)C(=O)NC1C=CS(=O)(=O)C1 (stereo not drawn)	35.5 µM [falling, partial curve, poor fit]	35.5 µM [falling, partial curve, poor fit]
O=C(Nc1ccc(Cc2ccncc2)cc1)c1ccc(S(=O)(=O)N2CCCC2)cc1		5.62 µM [rising, single point]

Structure (SMILES)	AC50 [1]	AC50 [2]
CCOc1ccccc1N1CCN(C(=O)CCCN2C(=O)c3cccc4cccc(c34)C2=O)CC1		35.5 µM [rising, single point]
COc1ccc(OC)c(C(=O)c2ccc(C(=O)Nc3cccc4ccccc34)cc2)c1		2.51 µM [rising, full curve, poor fit]
O=C(Nc1cccc(F)c1)c1cc(S(=O)(=O)N2CCOCC2)cs1		35.5 µM [falling, single point]
COc1ccccc1-c1nnc2sc(-c3cc4ccccc4o3)nn12	0.631 µM [falling, full curve]	0.708 µM [falling, full curve]
N#CCc1ccc(NS(=O)(=O)c2ccc(C3CCCCC3)cc2)cc1	10 µM [rising, partial curve]	5.62 µM [rising, full curve]
OCCNc1c2ccccc2nc2c(F)c(F)c(F)c(F)c12		3.55 µM [rising, full curve, poor fit]
O=C(/C=C/c1ccc([N+](=O)[O-])cc1)NCCN1C(=O)S/C(=C\c2ccc(F)cc2)C1=O	0.00447 µM [falling, full curve, poor fit]	0.00355 µM [falling, full curve, poor fit]
Cc1ccc(-c2csc(NC(=O)Cn3[nH]c(=O)c4ccccc4c3=O)n2)cc1		7.08 µM [rising, partial curve, poor fit]
O=C(O)c1cc(-c2ccc(Cl)s2)nc2ccccc12		35.5 µM [rising, single point]
O=C(NCc1ccco1)C1CCN(C(=O)c2cc3sccc3n2Cc2ccc(F)cc2)CC1		25.1 µM [rising, single point]
COc1cccc(Cn2c(=O)c(C)nc3cnc(Nc4ccccc4)nc32)c1		10 µM [falling, partial curve]
CCN(C(=O)C1CCCN(c2ncnc3c2nc2n3CCCCC2)C1)c1cccc(Cl)c1 (stereo not drawn)	0.1 µM [falling, full curve, poor fit]	
Cc1nn(-c2ccccc2)c(C)c1/C=N/NC(=O)c1cccs1		12.6 µM [rising, partial curve, poor fit]
COc1c2ccoc2nc2c(OC)c(OC[C@H](O)C(C)(C)O)ccc12	12.6 µM [falling, single point]	
FC(F)(F)c1ccccc1-c1ccc2ncnc(N3CCOCC3)c2c1	11.2 µM [falling, partial curve]	20 µM [falling, partial curve, poor fit]
CN(Cc1ccccc1)c1ncnc2c1cnn2-c1ccccc1		22.4 µM [rising, single point]
COc1ccc(-c2cc(=O)n3[nH]cnc3n2)cc1	0.562 µM [rising, full curve, poor fit]	
COc1ccc(C(=O)Nc2ccccc2C(=O)OCc2cc(=O)n3c4c(sc3n2)CCCC4)cc1		0.891 µM [falling, partial curve, poor fit]
CC(=O)Nc1ccc(S(=O)(=O)N2CCCN(S(=O)(=O)c3ccc(C)cc3)CC2)cc1	35.5 µM [rising, single point]	15.8 µM [rising, single point]
CC(=O)N(Cc1ccc(F)cc1)C1=C(NCc2ccccc2)C(=O)c2ccccc2C1=O	7.08 µM [falling, full curve]	5.62 µM [falling, full curve]
CCOC(=O)C1(CC2CCCCO2)CCN(Cc2ccccc2-c2ccco2)CC1 (stereo not drawn)	35.5 µM [falling, single point]	
Cc1ccc(-c2nnc(N3CCCCC3)c3ccccc23)cc1S(=O)(=O)NCC1CCCO1 (stereo not drawn)		35.5 µM [rising, single point]
C[C@]12CC[C@@H]3c4ccc(OC(=O)c5ccccc5)cc4CC[C@H]3[C@@H]1CC[C@@H]2O	2.51 µM [rising, full curve, poor fit] and 3.98 µM [falling, partial curve]	3.16 µM [rising, full curve] and 3.98 µM [falling, full curve, poor fit]
COc1ccc(CCNC(=O)CSc2nc3cc(Cl)ccc3o2)cc1OC		15.8 µM [rising, single point]
CN(CCO)c1cc(Sc2nc3ccccc3s2)c2nonc2c1[N+](=O)[O-]	25.1 µM [falling, partial curve]	25.1 µM [falling, single point]
c1ccc(Cc2nnc(Sc3ccccc3)c3ccccc23)cc1	25.1 µM [falling, single point]	35.5 µM [falling, single point]
COc1cc(-c2nc(-c3ccc(NC(=O)c4ccc(Br)o4)cc3)no2)cc(OC)c1OC		5.01 µM [rising, partial curve]
